Laboratory results as given in PubChem BioAssay AID1487 (National Center for Advancing Translational Sciences (NCATS), 2009).
The list shows a part of the results. The main result of the screen is listed elsewhere. These columns were measured beside it and carry no call. The list favours compounds with an active or inconclusive main result. Words in brackets tell the shape of the fitted curve; partial curves, single points and poor fits give uncertain potencies.

Assay: qHTS Assay for Modulators of Lamin A Splicing
Conditions: HeLa LMNA splicing GFP/RFP minigene ratio, 48 h
Description: NCGC Assay Overview: Hutchinson-Gilford Progeria Syndrome (HGPS) is a pediatric premature aging disease caused by a spontaneous mutation in the lamin A/C (LMNA) gene. The mutation activates a cryptic splice site in the LMNA pre-mRNA which results in production of a pre-lamin A protein that cannot be processed properly. The mutant protein accumulates in the nucleus and negatively affects numerous cellular functions. Correction of the splicing defect in HGPS patient cells using a targeted oligonucleotide (exo11) leads to reversal of the cellular disease phenotypes. To identify small molecule modulators of aberrant LMNA splicing, a homogenous assay was constructed in HeLa cells that used a GFP containing minigene to report on correction of aberrant splicing in lamin A and a RFP (DsRed2) to report on cell viability, uniformity and nonspecific effects on the assay signal. This assay was adapted to laser-scanning microplate cytometry (Acumen, TTP Labtech) where miniaturization of the assay to a 1,536-well plate format was possible. References: Bowen, W. P.; Wylie, P. G. Application of Laser-Scanning Fluorescence Microplate Cytometry in High Content Screening. Assay Drug Dev Technol 2006;4:209-221. Scaffidi P, Misteli T. Reversal of the cellular phenotype in the premature aging disease Hutchinson-Gilford progeria syndrome. Nat.
NCGC Assay Protocol Summary: Reagents/Controls: Stable clones expressing DsRed2 and lamin A-EGFP were generated by Cell and Molecular Technologies in S3 HeLa cells. HeLa cells were prepared for the assay when they were 70-90% confluent. The cells were counted and resuspended in Opti-MEM I (no phenol red; Gibco), 2% FBS, 1% penicillin/ streptomycin (Gibco) at concentration of 120 cells/uL concentration. The suspension was passed through a Falcon basket filter with pore size 40um (Beckton Dickson). Control titrations: column […] 1536-well plate contained a sixteen point titration (1:2 dilutions) in duplicate of ancitabine (Sigma: A8598) beginning at 40 uM final concentration. Column 2 contained a sixteen point titration (1:2 dilutions) of cycloheximide beginning at 1.4 mM final concentration. Column 3 contained ancitabine at 40 uM and column 4 contained was the vehicle control (0.5% DMSO final concentration). Assay Steps: 5 uL of HeLa cells were plated in Aurora LoBase black clear bottom (cyclic-olefin polymer) 1536-well plates at a final density of 600 cells/well. Controls and library compounds were added with a 1536-well pin array using the Kalypsys pin-tool. The plates were then incubated for 48 hrs in a cell-culture incubator (37 °C; 5% CO2, 98% humidity). Following incubation the plates were read on the Acumen Explorer using the 488 nm laser. Data was collected on objects between 10 and 100 um in size. Cell objects were defined by a 15 um width x 10 um depth filter. The ratio of the total object intensity in PMT1 (500-530 nm emission; GFP) over PMT3 (575-640 nm emission; RFP) was calculated for analysis. Keywords: NIH Roadmap, MLSCN, MLI, MLSMR, qHTS, NCGC, lamin A, Progeria, RNA splicing.

[1] = measured here: RFP viability control channel
[2] = measured here: GFP splicing reporter channel

Structure (SMILES)	AC50 [1]	AC50 [2]
CCOc1ccc(Br)cc1S(=O)(=O)N1CCC(C(=O)O)CC1	0.00794 µM [falling, full curve, poor fit]	
COc1ccccc1N(CC(=O)N/N=C/c1c(O)ccc2ccccc12)S(C)(=O)=O	31.6 µM [rising, single point]	
O=C(NCCN1CCOCC1)Nc1ccc(Cl)cc1Cl	35.5 µM [falling, single point]	35.5 µM [falling, single point]
COc1ccc(N2CCN(C(=O)c3c(-c4ccccc4)noc3C)CC2)cc1	22.4 µM [rising, single point]	
Cc1ccc(NC(=S)NNC(=O)c2ccc(N3CCOCC3)c([N+](=O)[O-])c2)cc1Cl	31.6 µM [rising, single point]	31.6 µM [rising, single point]
Cc1ccc(O)c(N=Cc2cc(Cc3ccccc3)cc([N+](=O)[O-])c2O)c1		0.0355 µM [falling, full curve, poor fit]
CC1=C(C(=O)Nc2ccccc2)C(c2cc(Br)ccc2F)n2ncc(C(=O)Nc3ccccc3)c2N1 (configuration not stated)	0.01 µM [falling, full curve, poor fit]	0.01 µM [falling, full curve, poor fit]
COc1cccc(NC(=O)N(Cc2cc3cc(C)cc(C)c3[nH]c2=O)CC2COCCO2)c1 (configuration not stated)	11.2 µM [rising, partial curve]	
CC1CN(C(=S)SCC(=O)c2ccc(Cl)cc2)CC(C)O1 (configuration not stated)	15.8 µM [rising, partial curve]	11.2 µM [rising, single point]
O=C(Nc1nc(COc2ccccc2)cs1)c1ccccc1F	31.6 µM [rising, single point]	31.6 µM [rising, single point]
Cc1c(C(=O)OCC(C)C)[nH]c2c1C(=O)CC(c1cccs1)C2 (configuration not stated)	1.58 µM [rising, full curve]	
CC(C)=C1C2CCC1C1C(=O)N(CCc3ccccc3)C(=O)C21 (configuration not stated)	14.1 µM [rising, single point]	15.8 µM [rising, single point]
O=C(Nc1cccc(-c2cn3ccccc3n2)c1)c1ccccc1	0.02 µM [falling, full curve]	0.0141 µM [falling, full curve, poor fit]
COc1cc(/C=C2/NC(=O)N(Cc3ccccc3F)C2=O)ccc1Oc1ccc([N+](=O)[O-])cn1	17.8 µM [rising, single point]	2.82 µM [rising, full curve]
Cc1ccc2c(c1)c(=O)c(Br)c(C)n2Cc1ccccc1	25.1 µM [rising, partial curve, poor fit]	0.141 µM [rising, full curve, poor fit]
CCOC(=O)C1=C(N)N(c2ccc(C)cc2)C2=C(C(=O)CCC2)C1c1cccs1 (configuration not stated)	12.6 µM [rising, partial curve]	
COc1ccccc1N(CC(=O)NCc1ccc(F)cc1)C(=O)CCC(=O)Nc1ccccn1		1.58 µM [falling, single point]
COc1ccc(-n2cnc3sc4c(c3c2=O)CCCC4)cc1	11.2 µM [rising, partial curve, poor fit]	
O=c1c(-c2ccccc2)c(O)c2cccc3c2n1CCC3	0.0447 µM [falling, full curve, poor fit]	
Clc1ccc(CON/C=N/c2ncnc3sccc23)c(Cl)c1	10 µM [rising, partial curve]	
O=C(COc1ccc(Cl)cc1)NCC(c1ccco1)S(=O)(=O)c1ccc(Cl)cc1 (configuration not stated)		35.5 µM [falling, single point]
Cn1ccnc1C(=O)c1cc(SCC(=O)NCc2ccccc2)nc2ccccc12	4.47 µM [rising, full curve, poor fit]	6.31 µM [rising, single point]
O=[N+]([O-])c1ccc(/C=N/n2cnc3ccccc32)s1		35.5 µM [falling, single point]
Cn1c(=O)c2c(nc(NCc3ccc4c(c3)OCO4)n2Cc2ccc(F)cc2)n(C)c1=O	35.5 µM [falling, single point]	35.5 µM [falling, single point]
COc1ccc(N(C)S(=O)(=O)c2cccc(C(=O)OC(C(=O)Nc3cc(C)cc(C)c3)c3ccccc3)c2)cc1 (configuration not stated)	0.355 µM [rising, full curve, poor fit]	7.08 µM [rising, partial curve, poor fit]
Cc1cc(C)cc(N(CC(=O)NC(C)(C)C)C(=O)CNC(=O)c2cccs2)c1	0.316 µM [falling, full curve, poor fit]	1.26 µM [falling, partial curve, poor fit]
CCOC(=O)c1sc2c(c1C)C(c1cccs1)C1=C(CCCC1=O)N2 (configuration not stated)	22.4 µM [rising, single point]	20 µM [rising, single point]

Quoted from the listing:
O=c1c(-c2ccccc2)c(O)c2cccc3c2n1CCC3 | AC50 [1]: 0.0447 µM [falling, full curve, poor fit]
CCOc1ccc(Br)cc1S(=O)(=O)N1CCC(C(=O)O)CC1 | AC50 [1]: 0.00794 µM [falling, full curve, poor fit]
Cc1cc(C)cc(N(CC(=O)NC(C)(C)C)C(=O)CNC(=O)c2cccs2)c1 | AC50 [1]: 0.316 µM [falling, full curve, poor fit]
CCOC(=O)c1sc2c(c1C)C(c1cccs1)C1=C(CCCC1=O)N2 (configuration not stated) | AC50 [1]: 22.4 µM [rising, single point]

The list goes on.

Structure (SMILES)	AC50 [1]	AC50 [2]
CC(C)CNC(=O)CSc1nc2scc(-c3ccccc3)c2c(=O)[nH]1	14.1 µM [rising, partial curve]	0.141 µM [rising, full curve]
COC(=O)c1c(-c2ccccc2)c(-c2ccccc2)nn(C)c1=O	1.12 µM [falling, full curve, poor fit]	
COCc1cc(Sc2ccc(Cl)cc2Cl)nc(-c2ccccc2)n1	0.0224 µM [rising, full curve, poor fit]	
Cc1[nH]n(-c2ccccc2)c(=O)c1/C=N/Nc1nncc(-c2ccccc2)n1	11.2 µM [rising, partial curve, poor fit]	
O=C1OCCN1CCNCc1cn(-c2ccc(F)cc2)nc1-c1ccccc1Cl	14.1 µM [falling, partial curve, poor fit]	0.00891 µM [falling, full curve, poor fit]
CCOC(=O)Cc1c(C)nc2c(-c3cccc(Br)c3)c[nH]n2c1=O	2.51 µM [rising, partial curve, poor fit]	
O=C(c1ccc2c(c1)OCO2)N(Cc1cccs1)C1(C(=O)NC2CCCCC2)CCCCC1		0.178 µM [falling, full curve, poor fit]
O=C(Cn1nnc(-c2ccccc2NC(=O)C2CC2)n1)NC1CCCCC1	0.1 µM [rising, full curve, poor fit]	
COc1ccc(NC(=S)N(CCc2c(C)[nH]c3ccc(C)cc23)Cc2cccs2)cc1	14.1 µM [rising, partial curve]	11.2 µM [rising, partial curve, poor fit]
CN1CCN(C2=C(Cl)C(=O)N(c3ccc(Cl)c(Cl)c3)C2=O)CC1	31.6 µM [rising, single point]	14.1 µM [rising, single point]
CC(=O)Nc1ccc(S(=O)(=O)N(C)S(=O)(=O)c2ccc(F)cc2)cc1	17.8 µM [rising, single point]	17.8 µM [rising, single point]
CCNc1nc(NC(C)(C)C)nc(SC(C(C)=O)C(C)=O)n1	3.98 µM [rising, partial curve]	
O=C(Cn1nnc(-c2ccccc2F)n1)Nc1cccc2ncccc12	3.16 µM [rising, full curve, poor fit]	4.47 µM [rising, partial curve]
O=[N+]([O-])c1ccc(COc2cccc(CNc3ccc(Br)cc3)c2)cc1		28.2 µM [rising, single point]
Cc1[nH]c2ccc(F)cc2c1CCN(Cc1ccncc1)C(=S)Nc1ccc(F)cc1	5.62 µM [falling, single point]	5.62 µM [falling, single point]
S=C(NCCC1=CCCCC1)Nc1ccccc1		14.1 µM [rising, single point]
CC(C)(C)c1cc(C(=O)N/N=C/c2ccc(O)cc2)n(-c2ccccc2)n1	0.316 µM [rising, full curve, poor fit]	
CCOC(=O)c1c(N2C(=O)C=CC2=O)sc(C)c1C	14.1 µM [falling, single point]	
COc1ccc(-n2ccn(CC(=O)NCc3ccc(C)cc3)c(=O)c2=O)cc1OC	17.8 µM [falling, single point]	12.6 µM [falling, single point]
Cc1ccc(NC(=S)/N=C(\N)Nc2nc(C)c3ccccc3n2)cc1C	2.51 µM [rising, full curve]	
COc1ccc2c(c1)C1=NN(/C(C)=C/C(C)=O)C(c3cccc(F)c3)C1CC2 (configuration not stated)		8.91 µM [rising, partial curve]
Cn1nnnc1SC(C(=O)Nc1cccc(C(F)(F)F)c1)c1ccccc1 (configuration not stated)	12.6 µM [rising, single point]	
COC(=O)c1c(-c2ccncc2)csc1NC(=O)c1ccoc1C	3.98 µM [rising, single point]	
c1ccc(N2CCOCCOCCOCCOCCOCC2)cc1	3.98 µM [falling, full curve, poor fit]	
Cc1cc(C)n(CC(=O)O)n1	35.5 µM [rising, single point]	35.5 µM [rising, single point]
CCOC(=O)c1c(C)[nH]c(C(=O)COC(=O)C2(C)CC2(Cl)Cl)c1C (configuration not stated)	14.1 µM [rising, single point]	35.5 µM [rising, single point]
